Laboratory results as given in patent US7951942B2, “Crystals of phenylalanine derivatives and production methods thereof” (Ajinomoto Co., Inc., priority 2003, dated 2011).
Some of these results come from one statement about several compounds together.

Assay: Water adsorption of the crystals (vapor adsorption isotherm)
Assay type: physicochemical
Settings: relative humidity of 100%, constant temperature of 25° C.
Procedure: The Measuring Method of the Water Adsorption of the Crystals (Creation of the Vapor Adsorption Isotherm)
• (1) The measuring method of water adsorption amount and conditions
100 mg of each of the above obtained α-type, γ-type and ε-type crystals were weighed and vacuum dried at 50° C. overnight. Then, under the constant temperature of 25° C., the water adsorption amount of the crystals was determined with a full automatic vapor adsorption measuring apparatus (BELSORP-18, BEL Japan, Inc.) (Mitsuiki et al., J. Agric. Food Chem., vol. 46, no. 9, pp. 3528-3534 (1998)). • (2) The measurement results

A water adsorption amount of no more than 2% was found for `COC(=O)[C@H](Cc1ccc(-n2c(=O)c3cc(N(C)C)ccc3n(C)c2=O)cc1)NC(=O)c1c(Cl)cccc1Cl` [α-type crystal] in this work.
